Tests used:
[1] = assay type: in vivo, male Sprague-Dawley rats; conditions: Control/TCDC, n = 13
Method: Rats were divided into two treatment groups. One group was pretreated with parenteral Vitamin E (all-rac-alpha tocopherol, […], Hoffmann-LaRoche,Nutley, N.J.). The other group was not pretreated. These rats then received either vehicle or TCDC (10 μmol/[…]) by tail vein injection (as described in Example 1). […] All i.p. injections were administered under light methoxyflurane anesthesia. Following the vitamin E or saline injections, rats were randomly assigned to receive a tail vein bolus injection of either TCDC or vehicle. Rats were sacrificed four hours later and serum was analyzed for AST, ALT, total bilirubin and alkaline phosphatase. […] The serum alpha tocopherol:total lipids ratio (mg/gm) was calculated as an additional index of vitamin E status^41. The liver was rapidly removed at sacrifice, the hepatic mitochondria were isolated as set forth above and analyzed for lipid-conjugated dienes as described above. A specimen of liver was also immediately frozen, protected from light and stored at -70° C. and subsequently analyzed for alpha tocopherol and reduced ubiquinol-9 by HPLC with electrochemical detection^42. The results were expressed as nmol alpha tocopherol or nmol reduced ubiquinol-9 per gram wet weight of liver.

[2] = tested on: hepatic reduced ubiquinol-9; assay: Hepatic reduced ubiquinol-9 by HPLC with electrochemical detection; assay type: in vivo, male Sprague-Dawley rats; conditions: in relation to TCDC or vitamin E treatment

Row | SMILES | Serum alpha tocopherol [1] | Serum alpha tocopherol/total lipids [1] | Hepatic ubiquinol-9 concentrations, change [2]
1 | C[C@H](CCC(=O)NCCS(=O)(=O)O)[C@H]1CC[C@H]2[C@@H]3[C@H](O)C[C@@H]4C[C@H](O)CC[C@]4(C)[C@H]3CC[C@]12C [TCDC, taurochenodeoxycholic acid] | 5.5 ± 0.3 µg/mL | 1.47 ± 0.13 mg/gm | No changes
2 | Cc1c(C)c2c(c(C)c1O)CCC(C)(CCCC(C)CCCC(C)CCCC(C)C)O2 (racemic) [Vitamin E, all-rac-alpha tocopherol] | – | – | No changes
